PubChem BioAssay AID504834 (National Center for Advancing Translational Sciences (NCATS), 2011)
Screen size: about 320,000 compounds; about 22,000 (6.9%) were called active. Inconclusive means that the source gave no clear call. Such entries were picked first, then a sample of the others. Calls come from the whole dose curve; as a rule, active = well fitted inhibition curve with a large enough effect; inconclusive = small, poorly fitted or top-dose-only effect, or another doubt; inactive = no such curve, though single readings can be large or run the other way. Where the call is inconclusive, the potency comes from a doubtful curve fit.

Assay: Primary qHTS for delayed death inhibitors of the malarial parasite plastid, 96 hour incubation
Conditions: P. falciparum luciferase reporter growth; series mostly up to 28.7 µM
In short: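 Parasite growth measured via integrated firefly luciferase reporter in P. falciparum. Infected erythrocytes at 2% hematocrit, 0.05% parasitemia final were treated 96 hours at 37 C under 5% CO2, and luminescence was read.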
Potency is the fitted concentration of half-maximal effect.

SMILES | Potency
N#Cc1c(N2CCCCC2)nc(N)c2c(N)nc3c(c12)CC(c1ccccc1)O3 (stereo not given) | active: 4.15 µM
COC(=O)c1cc(=O)n(Cc2cccs2)c(=Nc2ccccc2)s1 | inconclusive: 18.5 µM [inhibitor, single point]
COc1ccccc1Cc1nc(-c2ccncc2)no1 | inactive
CCCCOc1ccc(NC2=NC3(CCCC3)N=C(N)N2)cc1 | inconclusive: 8.28 µM [inhibitor, partial curve, poor fit]
COc1cc(C#N)ccc1OC(=O)C1CCN(C(=O)c2ccc(F)cc2)CC1 | inactive
Cc1cccc(C(O)(C(=O)NNc2ccc3ccccc3n2)c2cccc(C)c2)c1 | inconclusive: 18.5 µM [inhibitor, single point]
COCCCn1c(SCC(N)=O)nnc1-c1ccccc1 | inconclusive: 18.5 µM [inhibitor, single point]
COc1ccccc1N1CCN(C(=O)c2oc3c(c2C)C(=O)CC(C)(C)C3)CC1 | inconclusive: 14.7 µM [inhibitor, partial curve, poor fit]
N#Cc1nc(-c2ccc(F)cc2)oc1N1CCCCC1 | inactive
COc1ccc(-c2cc(C(F)(F)F)nc(S(=O)(=O)CCCC(=O)Nc3cccc(O)c3)n2)cc1OC | inactive
COc1cc(CC(=O)Nc2nc(-c3ccc(F)c(F)c3)cs2)cc(OC)c1OC | inconclusive: 10.4 µM [inhibitor, single point]
COc1ccc(Cl)cc1NC(=O)c1cnccn1 | inconclusive: 18.5 µM [inhibitor, single point]
O=C(Nc1ccc(Cl)cn1)c1cccc(S(=O)(=O)N2CCCCC2)c1 | inactive
CC(Sc1nn(-c2ccc(F)cc2)c(=S)s1)C(=O)c1c(N)n(C)c(=O)n(C)c1=O (stereo not given) | inconclusive: 18.5 µM [inhibitor, single point]
COc1ccccc1N1CCN(C(=S)Nc2ccccc2)CC1 | inconclusive: 16.5 µM [inhibitor, single point]
CC1(C(=O)N/N=C/c2ccc([N+](=O)[O-])o2)CC1(Br)Br (stereo not given) | active: 10.4 µM
COC(=O)C1(C)NC(c2ccc(Cl)cc2)C2C(=O)N(c3ccccc3)C(=O)C21 (stereo not given) | inconclusive: 18.5 µM [inhibitor, single point]
CCOC(=O)Cc1csc(NS(=O)(=O)c2ccc(NC(C)=O)cc2)n1 | inconclusive: 18.5 µM [inhibitor, single point]
Cc1nn(Cc2ccc(F)cc2)c2sc(C(=O)Nc3ccc(N4CCOCC4)cc3N3CCOCC3)cc12 | active: 14.7 µM
Cc1ccc(S(=O)(=O)N2CCN(C(=O)COC(=O)c3cccnc3Cl)CC2)c(C)c1 | inconclusive: 18.5 µM [inhibitor, single point]

Copied from the list:
COc1ccc(-c2cc(C(F)(F)F)nc(S(=O)(=O)CCCC(=O)Nc3cccc(O)c3)n2)cc1OC – Potency: inactive
N#Cc1nc(-c2ccc(F)cc2)oc1N1CCCCC1 – Potency: inactive
